Results are given in words; binding and its absence hold for the method and conditions named. Some results given as binding are weak or reduced against the parent protein; the word gives no strength.
Experiments:
[1] = biological target: human Siglec-9 expressed on human cells (human) (UniProt Q9Y336); assay: flow cytometry on human primary dendritic cells, mAb plus labelled secondary antibody
[2] = biological target: Histidine-tagged human Siglec-9 (NovoProtein) (human) (UniProt Q9Y336); assay: SPR (Biacore T200), mAb captured on anti-mouse IgG CM5 chip, 100 nM His-tagged Siglec-9 injected
[3] = biological target: human Siglec-9 expressed on human cells (human) (UniProt Q9Y336); assay: flow cytometry on human primary cells expressing Siglec-9
[4] = biological target: Histidine-tagged human Siglec-9 (NovoProtein) (human) (UniProt Q9Y336); assay: SPR (Biacore T200), mAb captured on anti-mouse IgG CM5 chip, 200 nM His-tagged Siglec-9 injected [Contd.]

Protein sequences, listed by entry. Tags and fused reporters are not part of them. Lines headed by an entry give the natural chain unless they say otherwise; changes in a name come on top.
UniProt Q9Y336: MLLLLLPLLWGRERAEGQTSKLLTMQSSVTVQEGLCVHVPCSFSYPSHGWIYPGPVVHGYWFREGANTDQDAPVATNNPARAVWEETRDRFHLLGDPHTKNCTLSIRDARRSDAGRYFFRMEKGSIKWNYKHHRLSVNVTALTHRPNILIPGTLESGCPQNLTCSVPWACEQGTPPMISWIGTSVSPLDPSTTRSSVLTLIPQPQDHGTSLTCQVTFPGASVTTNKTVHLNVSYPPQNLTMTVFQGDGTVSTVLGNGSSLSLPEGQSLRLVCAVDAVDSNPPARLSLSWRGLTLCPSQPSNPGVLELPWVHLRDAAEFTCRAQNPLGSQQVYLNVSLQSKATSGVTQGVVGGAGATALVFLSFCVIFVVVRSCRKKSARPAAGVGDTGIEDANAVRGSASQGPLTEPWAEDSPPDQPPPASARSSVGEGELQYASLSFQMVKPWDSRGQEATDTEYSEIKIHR

Measured: binding

B1: anti-Siglec-9 antibody 5B1 (antibody, IgG1, V domains shown)
VH: QVQLQQSGAEVVKPGASVKLSCKAFGYTFTSYWMHWVKQRPGQGLEWIGEINPRDGVSNCNEKFTSKATLTVDTSSNTAYMQLNNLTSEDSAVYYCTIWEDYFDYWGQGTTLTVST
VL: NVVMTQTPLTLSVTLGQPASISCKSSQSLLYTNGKTYLNWLLQRPGQSPKLLIYLVSKLESGVPDRFSGSGSGTDFTLKINRVEAEDLGVYYCLQATHFPLTFGAGTKLELK
binds: [1] | [2] | [3]

B2: anti-Siglec-9 antibody 7H12 (antibody, V domains shown)
VH: QVQLQQSGAEVVKPGASVKLSCKAFGYTFTSYWMHWVKQRPGQGLEWIGEINPRDGVSNCNEKFTSKATLTVDTSSNTAYMQLNNLTSEDSAVYYCTIWEDYFDYWGQGTTLTVST
VL: NVZMTQTPLTLSVTLGQPASISCKSSQSLLYTNGKTYLNWLLQRPGQSPKLLIYLVSKLESGVPDRFSGSGSGTDFTLKINRVEAEDLGVYFCLQAPHFPLTFGGGTKLEMK
binds: [1] | [3] | [4]

Source: patent publication US20190062427A1
